Assay results taken from US20190298681A1.
No constants are given. Whether binding was seen depends on the method and setting. Some results given as binding are weak or reduced against the parent protein; the word gives no strength.

Amino acid sequences for entries named in this document (tags omitted). Residues count along the entry.
UniProt P29317, residues 24-976: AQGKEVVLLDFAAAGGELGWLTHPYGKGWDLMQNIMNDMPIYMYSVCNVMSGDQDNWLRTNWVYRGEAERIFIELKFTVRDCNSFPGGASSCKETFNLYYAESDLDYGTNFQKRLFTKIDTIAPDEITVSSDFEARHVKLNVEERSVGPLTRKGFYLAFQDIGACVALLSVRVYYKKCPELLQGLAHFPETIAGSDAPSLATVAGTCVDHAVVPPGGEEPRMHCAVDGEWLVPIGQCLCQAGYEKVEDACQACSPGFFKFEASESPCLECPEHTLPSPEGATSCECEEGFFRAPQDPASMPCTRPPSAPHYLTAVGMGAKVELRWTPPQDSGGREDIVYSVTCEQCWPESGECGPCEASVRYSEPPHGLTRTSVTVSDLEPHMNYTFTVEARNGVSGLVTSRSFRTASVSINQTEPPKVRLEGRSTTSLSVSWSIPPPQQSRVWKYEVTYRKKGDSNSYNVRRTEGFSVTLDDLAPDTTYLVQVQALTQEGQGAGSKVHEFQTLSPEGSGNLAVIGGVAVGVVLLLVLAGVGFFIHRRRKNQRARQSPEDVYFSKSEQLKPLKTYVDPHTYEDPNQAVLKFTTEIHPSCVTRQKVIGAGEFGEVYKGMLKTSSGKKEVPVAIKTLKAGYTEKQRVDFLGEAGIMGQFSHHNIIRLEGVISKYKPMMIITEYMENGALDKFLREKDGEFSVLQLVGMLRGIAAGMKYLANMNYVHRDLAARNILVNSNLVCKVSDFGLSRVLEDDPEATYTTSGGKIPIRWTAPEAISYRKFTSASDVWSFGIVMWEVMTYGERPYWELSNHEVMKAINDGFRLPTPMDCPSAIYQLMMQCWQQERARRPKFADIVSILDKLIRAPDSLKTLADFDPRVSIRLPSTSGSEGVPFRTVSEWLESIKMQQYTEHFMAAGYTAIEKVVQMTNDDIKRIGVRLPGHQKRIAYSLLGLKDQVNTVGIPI

Key:
[1] = molecular target: Ephrin type-A receptor 2 (EphA2), human (human) (UniProt P29317); experiment: liposome-cell association, flow cytometry, 34 cell lines
[2] = molecular target: Ephrin type-A receptor 2 (EphA2), human (human) (UniProt P29317); experiment: liposome-cell association, flow cytometry on a panel of cell lines
[3] = molecular target: Ephrin type-A receptor 2 (EphA2), human (human) (UniProt P29317); experiment: liposome-cell association, flow cytometry of DiI5-labelled liposomes on cancer cell lines, 4 h 37 C

Measured: binding

B1: 40scFv-ILs (immunoliposome carrying the anti-EphA2 scFv of SEQ ID NO:40) (scFv)
scFv: QVQLVQSGGGLVQPGGSLRLSCAASGFTFSSYAMHWVRQAPGKGLEWVAVISYDGSNKYYADSVKGRFTISRDNSKNTLYLQMNSLRAEDTAVYYCARASVGATGPFDIWGQGTLVTVSSASTGGGGSGGGGSGGGGSGGGGSSSELTQPPSVSVAPGQTVTITCQGDSLRSYYASWYQQKPGTAPKLLIYGENNRPSGVPDRFSGSSSGTSASLTITGAQAEDEADYYCNSRDSSGTHLTVFGGGTKLTVLGGGSGGC
binds: all assays above
